PubChem BioAssay AID1224827 | NIAID – 2016

- Screen: 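Identify regulators of the macrophage TNF-alpha response to bacterial LPS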 (follow-up of hits)
- Cell system: RAW264.7 G9 mouse macrophage reporter clone
- Reagent: single siRNA against mouse genes, 100 nM siRNA
- Timing: siRNA for 2 days, then LPS about 16 h
- Conditions: bacterial lipopolysaccharide (LPS), 10 ng/ml, cells fixed after overnight (about 16 h) stimulation
- Read-out: 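TNF promoter reporter red fluorescence in nuclei, background subtracted, normalised per plate and to non-targeting control siRNA, as z-scores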
- Scale: TNF reporter z-score, mean: higher = stronger Tnf promoter reporter signal
- Active means: 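Active siRNA: replicate-mean z-score of 2 or more, or -2 or less; no calls for control wells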
The deposit covers about 3,800 reagents; this is a part drawn at random. About 2,200 of them (57%) count as active. 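Active means a strong reporter change in either direction; calls are per siRNA, not per gene; qiagen siRNAs gave weaker effects.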 The numbers tell different reagents against one gene apart. Not all columns of the deposit are shown.

Knock-down of Gdf1 #1 came out at: TNF reporter z-score, mean 0.887; inactive.
Against Gdf1 #2, the entry reads TNF reporter z-score, mean -3.34; active.
Against Gdf1 #3, the entry reads TNF reporter z-score, mean -4.56; active.
After knock-down of Cfb #1, the screen gave TNF reporter z-score, mean -2.71; active.
For Cfb #2, the values are TNF reporter z-score, mean -3.52; active.
For Cfb #3, the values are TNF reporter z-score, mean -4.51; active.
Depletion of Cfb #4 gave: TNF reporter z-score, mean -0.544; inactive.
Silencing of Cfb #5 gave: TNF reporter z-score, mean -0.686; inactive.
For Cfb #6, the entry reads TNF reporter z-score, mean -1.46; inactive.
Gpr26 #1 showed TNF reporter z-score, mean -1.42; inactive.
Gpr26 #2 showed TNF reporter z-score, mean -4.04; active.
For Gpr26 #3, the values are TNF reporter z-score, mean -4.66; active.
With knock-down of Gpr26 #4, the screen gave TNF reporter z-score, mean -0.173; inactive.
After knock-down of Gpr26 #5, the screen gave TNF reporter z-score, mean -0.114; inactive.
With knock-down of Gpr26 #6 the results were TNF reporter z-score, mean -3.41; active.

Entries above whose gene name begins with C or c (6):
Cfb #1 | TNF reporter z-score, mean: -2.71; Outcome: active
Cfb #2 | TNF reporter z-score, mean: -3.52; Outcome: active
Cfb #3 | TNF reporter z-score, mean: -4.51; Outcome: active
Cfb #4 | TNF reporter z-score, mean: -0.544; Outcome: inactive
Cfb #5 | TNF reporter z-score, mean: -0.686; Outcome: inactive
Cfb #6 | TNF reporter z-score, mean: -1.46; Outcome: inactive

More records follow.
Depletion of Hras #1 came out at: TNF reporter z-score, mean 4.19; active.
Hras #2 gave TNF reporter z-score, mean -0.88; inactive.
Hras #3 gave TNF reporter z-score, mean -0.711; inactive.
Knock-down of Hras #4 gave: TNF reporter z-score, mean 0.317; inactive.
Depletion of Hras #5 came out at: TNF reporter z-score, mean -1.07; inactive.
For Hras #6, the values are TNF reporter z-score, mean -1.39; inactive.
Knock-down of Mgat4b #1 came out at: TNF reporter z-score, mean 0.717; inactive.
For Mgat4b #2, the values are TNF reporter z-score, mean -2.76; active.
For Mgat4b #3, the values are TNF reporter z-score, mean -4.26; active.
After knock-down of Mgat4b #4, the screen gave TNF reporter z-score, mean 1.49; inactive.
After knock-down of Mgat4b #5 the results were TNF reporter z-score, mean -1.44; inactive.
Against Mgat4b #6, the values are TNF reporter z-score, mean -1.89; inactive.
Silencing of Pex13 #1 came out at: TNF reporter z-score, mean -0.934; inactive.
Silencing of Pex13 #2 came out at: TNF reporter z-score, mean -2.43; active.
Pex13 #3 scored TNF reporter z-score, mean -3.07; active.
Silencing of Pex13 #4 gave: TNF reporter z-score, mean 2.1; active.
With knock-down of Pex13 #5 the results were TNF reporter z-score, mean 0.897; inactive.
Against Pex13 #6, the entry reads TNF reporter z-score, mean 1.06; inactive.
